Laboratory results published in article PMC9061300.
No constants are given. Whether binding was seen depends on the method and setting. In cells and extracts the contact can be indirect. These calls come from enrichment with a bait or labelling near it, and not all partners need be listed. Sequences can lack the tags named with a protein.

The chains behind the UniProt entries cited, without tags or fusion partners.
UniProt A8CG34: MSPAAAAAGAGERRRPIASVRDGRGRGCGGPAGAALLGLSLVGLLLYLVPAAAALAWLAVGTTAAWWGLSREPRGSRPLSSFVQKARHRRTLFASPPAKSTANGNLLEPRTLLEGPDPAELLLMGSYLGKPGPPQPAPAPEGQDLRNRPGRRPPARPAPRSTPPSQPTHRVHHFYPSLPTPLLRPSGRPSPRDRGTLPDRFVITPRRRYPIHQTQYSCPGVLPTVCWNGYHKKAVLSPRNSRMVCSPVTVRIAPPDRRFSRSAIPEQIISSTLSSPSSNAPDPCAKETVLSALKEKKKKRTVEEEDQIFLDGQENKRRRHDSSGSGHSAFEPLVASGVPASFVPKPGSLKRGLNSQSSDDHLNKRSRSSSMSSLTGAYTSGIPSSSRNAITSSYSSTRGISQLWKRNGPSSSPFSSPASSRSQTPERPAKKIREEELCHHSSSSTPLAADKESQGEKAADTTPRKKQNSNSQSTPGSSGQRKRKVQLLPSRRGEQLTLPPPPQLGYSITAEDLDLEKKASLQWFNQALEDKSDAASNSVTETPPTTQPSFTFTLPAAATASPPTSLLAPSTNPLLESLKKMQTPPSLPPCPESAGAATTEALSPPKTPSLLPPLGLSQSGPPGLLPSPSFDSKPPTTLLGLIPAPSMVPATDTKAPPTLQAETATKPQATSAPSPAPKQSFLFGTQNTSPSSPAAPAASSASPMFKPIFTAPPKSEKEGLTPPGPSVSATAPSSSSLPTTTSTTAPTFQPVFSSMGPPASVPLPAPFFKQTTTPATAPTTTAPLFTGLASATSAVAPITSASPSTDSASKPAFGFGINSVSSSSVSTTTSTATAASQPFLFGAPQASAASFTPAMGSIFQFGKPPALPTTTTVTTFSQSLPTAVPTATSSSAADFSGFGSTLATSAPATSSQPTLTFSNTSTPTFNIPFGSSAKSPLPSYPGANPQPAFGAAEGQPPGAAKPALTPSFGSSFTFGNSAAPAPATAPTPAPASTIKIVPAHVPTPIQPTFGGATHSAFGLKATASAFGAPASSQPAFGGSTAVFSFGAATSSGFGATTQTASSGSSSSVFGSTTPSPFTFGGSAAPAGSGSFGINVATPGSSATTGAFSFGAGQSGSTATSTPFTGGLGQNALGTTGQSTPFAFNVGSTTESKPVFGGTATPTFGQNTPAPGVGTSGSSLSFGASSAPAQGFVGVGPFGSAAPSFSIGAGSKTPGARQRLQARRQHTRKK
UniProt Q96HA1: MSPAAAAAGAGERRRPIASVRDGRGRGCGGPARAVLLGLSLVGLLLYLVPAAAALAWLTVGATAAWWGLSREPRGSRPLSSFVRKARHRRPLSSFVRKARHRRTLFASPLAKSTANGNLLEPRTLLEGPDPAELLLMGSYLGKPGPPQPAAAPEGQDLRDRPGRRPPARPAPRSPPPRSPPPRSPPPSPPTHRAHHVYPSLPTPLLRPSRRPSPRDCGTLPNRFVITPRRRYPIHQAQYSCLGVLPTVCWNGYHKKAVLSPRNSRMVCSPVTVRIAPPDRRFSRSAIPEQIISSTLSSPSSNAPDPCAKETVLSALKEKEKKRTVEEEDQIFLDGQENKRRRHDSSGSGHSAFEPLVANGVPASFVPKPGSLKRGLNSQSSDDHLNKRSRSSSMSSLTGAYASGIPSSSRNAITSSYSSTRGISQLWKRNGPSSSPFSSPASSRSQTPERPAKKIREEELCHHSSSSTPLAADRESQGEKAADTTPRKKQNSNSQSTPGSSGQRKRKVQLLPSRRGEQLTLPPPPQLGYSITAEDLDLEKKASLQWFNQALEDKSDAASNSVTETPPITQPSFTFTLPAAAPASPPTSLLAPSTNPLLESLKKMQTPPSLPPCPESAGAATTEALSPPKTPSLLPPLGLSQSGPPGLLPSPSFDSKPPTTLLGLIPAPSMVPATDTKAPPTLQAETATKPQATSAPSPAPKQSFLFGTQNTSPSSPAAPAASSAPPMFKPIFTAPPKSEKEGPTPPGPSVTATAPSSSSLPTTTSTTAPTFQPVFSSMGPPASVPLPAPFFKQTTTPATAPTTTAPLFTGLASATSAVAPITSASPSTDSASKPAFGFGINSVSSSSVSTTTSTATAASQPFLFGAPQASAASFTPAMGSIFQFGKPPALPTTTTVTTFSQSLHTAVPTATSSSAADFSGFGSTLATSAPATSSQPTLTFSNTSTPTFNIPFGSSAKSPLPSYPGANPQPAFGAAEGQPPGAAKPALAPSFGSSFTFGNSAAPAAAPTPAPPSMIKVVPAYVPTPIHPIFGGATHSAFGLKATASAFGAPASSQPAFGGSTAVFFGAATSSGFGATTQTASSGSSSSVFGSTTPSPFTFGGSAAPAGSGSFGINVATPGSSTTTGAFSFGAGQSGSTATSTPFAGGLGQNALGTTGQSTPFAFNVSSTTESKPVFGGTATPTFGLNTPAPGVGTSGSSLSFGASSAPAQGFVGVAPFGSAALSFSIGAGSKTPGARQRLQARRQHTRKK
UniProt P49790: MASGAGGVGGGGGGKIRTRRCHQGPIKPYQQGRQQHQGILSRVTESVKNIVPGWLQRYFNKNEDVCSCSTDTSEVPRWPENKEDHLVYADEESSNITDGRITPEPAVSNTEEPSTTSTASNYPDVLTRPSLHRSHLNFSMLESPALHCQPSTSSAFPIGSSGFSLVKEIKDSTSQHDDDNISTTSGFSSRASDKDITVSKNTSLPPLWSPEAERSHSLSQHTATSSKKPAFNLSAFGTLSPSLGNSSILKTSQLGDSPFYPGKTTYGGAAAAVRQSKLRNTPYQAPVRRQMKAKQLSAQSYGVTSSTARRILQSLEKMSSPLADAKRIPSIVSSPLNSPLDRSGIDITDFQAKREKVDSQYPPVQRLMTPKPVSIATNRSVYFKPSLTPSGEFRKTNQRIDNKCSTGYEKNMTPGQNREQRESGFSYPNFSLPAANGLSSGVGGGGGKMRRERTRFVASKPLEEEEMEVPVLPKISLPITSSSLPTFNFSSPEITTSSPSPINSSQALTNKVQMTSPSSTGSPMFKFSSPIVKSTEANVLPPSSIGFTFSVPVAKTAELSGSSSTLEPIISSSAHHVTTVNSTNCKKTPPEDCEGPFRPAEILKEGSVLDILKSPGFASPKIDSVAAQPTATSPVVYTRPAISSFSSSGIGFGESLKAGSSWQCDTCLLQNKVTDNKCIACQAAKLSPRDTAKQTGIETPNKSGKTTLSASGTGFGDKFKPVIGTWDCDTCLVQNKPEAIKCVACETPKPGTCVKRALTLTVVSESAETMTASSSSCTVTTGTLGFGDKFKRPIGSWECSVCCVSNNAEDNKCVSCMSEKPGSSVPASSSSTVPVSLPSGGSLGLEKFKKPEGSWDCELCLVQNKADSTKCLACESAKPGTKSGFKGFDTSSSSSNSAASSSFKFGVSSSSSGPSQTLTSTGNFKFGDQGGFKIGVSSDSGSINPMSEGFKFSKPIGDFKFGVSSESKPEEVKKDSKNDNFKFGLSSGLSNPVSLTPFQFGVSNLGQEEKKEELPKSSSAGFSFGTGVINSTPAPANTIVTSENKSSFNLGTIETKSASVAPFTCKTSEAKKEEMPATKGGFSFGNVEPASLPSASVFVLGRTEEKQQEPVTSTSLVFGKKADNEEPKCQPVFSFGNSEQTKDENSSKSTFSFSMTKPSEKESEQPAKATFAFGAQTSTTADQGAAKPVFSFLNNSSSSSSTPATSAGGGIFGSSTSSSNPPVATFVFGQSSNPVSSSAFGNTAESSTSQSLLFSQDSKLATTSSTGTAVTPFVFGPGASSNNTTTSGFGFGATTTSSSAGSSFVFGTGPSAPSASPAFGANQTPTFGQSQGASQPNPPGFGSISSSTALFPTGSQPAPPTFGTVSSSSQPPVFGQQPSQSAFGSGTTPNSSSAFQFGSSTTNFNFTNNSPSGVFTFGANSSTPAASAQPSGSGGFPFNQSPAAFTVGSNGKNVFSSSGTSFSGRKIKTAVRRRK

T1: Flag-BirA*-IPO11 (importin 11) (UniProt Q9UI26)
T1 sequence: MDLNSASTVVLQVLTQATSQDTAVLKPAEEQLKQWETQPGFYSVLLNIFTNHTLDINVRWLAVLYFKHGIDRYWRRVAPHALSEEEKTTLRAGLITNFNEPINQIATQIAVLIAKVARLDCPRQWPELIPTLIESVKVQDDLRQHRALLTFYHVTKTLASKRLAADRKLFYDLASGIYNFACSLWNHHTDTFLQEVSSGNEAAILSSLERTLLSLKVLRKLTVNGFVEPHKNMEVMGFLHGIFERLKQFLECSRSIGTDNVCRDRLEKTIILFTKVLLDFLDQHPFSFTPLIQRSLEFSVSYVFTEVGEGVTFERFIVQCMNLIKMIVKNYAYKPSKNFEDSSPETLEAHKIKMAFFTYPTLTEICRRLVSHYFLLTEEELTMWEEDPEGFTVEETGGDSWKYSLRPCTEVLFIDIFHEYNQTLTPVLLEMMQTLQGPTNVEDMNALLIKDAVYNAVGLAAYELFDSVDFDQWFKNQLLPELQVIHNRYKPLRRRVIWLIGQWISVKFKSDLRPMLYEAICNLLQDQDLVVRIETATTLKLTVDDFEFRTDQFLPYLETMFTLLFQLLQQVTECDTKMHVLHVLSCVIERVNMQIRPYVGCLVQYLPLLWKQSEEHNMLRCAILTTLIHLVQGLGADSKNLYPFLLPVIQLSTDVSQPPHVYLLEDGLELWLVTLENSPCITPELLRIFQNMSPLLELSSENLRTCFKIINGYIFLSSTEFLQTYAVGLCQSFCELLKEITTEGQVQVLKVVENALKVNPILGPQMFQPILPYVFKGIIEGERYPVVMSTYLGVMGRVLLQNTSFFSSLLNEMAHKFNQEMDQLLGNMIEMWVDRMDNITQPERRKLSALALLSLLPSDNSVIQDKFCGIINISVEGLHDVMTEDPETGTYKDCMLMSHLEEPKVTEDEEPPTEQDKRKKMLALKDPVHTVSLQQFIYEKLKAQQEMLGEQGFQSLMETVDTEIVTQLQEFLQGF

B1: NUP50 (protein, UniProt Q9UKX7 1-468)
chain: MAKRNAEKELTDRNWDQEDEAEEVGTFSMASEEVLKNRAIKKAKRRNVGFESDTGGAFKGFKGLVVPSGGGRFSGFGSGAGGKPLEGLSNGNNITSAPPFASAKAAADPKVAFGSLAANGPTTLVDKVSNPKTNGDSQQPSSSGLASSKACVGNAYHKQLAALNCSVRDWIVKHVNTNPLCDLTPIFKDYEKYLANIEQQHGNSGRNSESESNKVAAETQSPSLFGSTKLQQESTFLFHGNKTEDTPDKKMEVASEKKTDPSSLGATSASFNFGKKVDSSVLGSLSSVPLTGFSFSPGNSSLFGKDTTQSKPVSSPFPTKPLEGQAEGDSGECKGGDEEENDEPPKVVVTEVKEEDAFYSKKCKLFYKKDNEFKEKGIGTLHLKPTANQKTQLLVRADTNLGNILLNVLIPPNMPCTRTGKNNVLIVCVPNPPIDEKNATMPVTMLIRVKTSEDADELHKILLEKKDA
B2: basic leucine zipper and W2 domains 1 (BZW1) (protein, UniProt Q7L1Q6-1 1-419)
chain: MNNQKQQKPTLSGQRFKTRKRDEKERFDPTQFQDCIIQGLTETGTDLEAVAKFLDASGAKLDYRRYAETLFDILVAGGMLAPGGTLADDMMRTDVCVFAAQEDLETMQAFAQVFNKLIRRYKYLEKGFEDEVKKLLLFLKGFSESERNKLAMLTGVLLANGTLNASILNSLYNENLVKEGVSAAFAVKLFKSWINEKDINAVAASLRKVSMDNRLMELFPANKQSVEHFTKYFTEAGLKELSEYVRNQQTIGARKELQKELQEQMSRGDPFKDIILYVKEEMKKNNIPEPVVIGIVWSSVMSTVEWNKKEELVAEQAIKHLKQYSPLLAAFTTQGQSELTLLLKIQEYCYDNIHFMKAFQKIVVLFYKAEVLSEEPILKWYKDAHVAKGKSVFLEQMKKFVEWLKNAEEESESEAEEGD
B3: basic leucine zipper and W2 domains 2 (BZW2) (protein, UniProt Q9Y6E2-1 1-419)
chain: MNKHQKPVLTGQRFKTRKRDEKEKFEPTVFRDTLVQGLNEAGDDLEAVAKFLDSTGSRLDYRRYADTLFDILVAGSMLAPGGTRIDDGDKTKMTNHCVFSANEDHETIRNYAQVFNKLIRRYKYLEKAFEDEMKKLLLFLKAFSETEQTKLAMLSGILLGNGTLPATILTSLFTDSLVKEGIAASFAVKLFKAWMAEKDANSVTSSLRKANLDKRLLELFPVNRQSVDHFAKYFTDAGLKELSDFLRVQQSLGTRKELQKELQERLSQECPIKEVVLYVKEEMKRNDLPETAVIGLLWTCIMNAVEWNKKEELVAEQALKHLKQYAPLLAVFSSQGQSELILLQKVQEYCYDNIHFMKAFQKIVVLFYKADVLSEEAILKWYKEAHVAKGKSVFLDQMKKFVEWLQNAEEESESEGEEN

molecular target: T1, Flag-BirA*-IPO11 (importin 11); assay: proximity labelling; BioID: Flag-BirA*-IPO11 induced in HEK293T-REx cells; biotinylated proteins identified by mass spectrometry; compared with the Flag-BirA* control

binding, binds:
POM121C (from UniProt A8CG34 1-1229)
POM121 (from UniProt Q96HA1 1-1249)
NUP153 (from UniProt P49790 1-1475)
B1
B2
B3
